The other results are listed elsewhere or left out. Some results for these compounds are left out of this collection, so the calls shown say nothing about other tests.

This assay deals with Genome polyprotein (Poliovirus type 1 (strain Mahoney)) (UniProt P03300). Put plainly: inhibitors of poliovirus polymerase RNA elongation – biochemical, fluorescence polarization, total intensity, primary screen (AID 588519). The note with it: stronger effect = lower value; % elongation: measured here: total intensity read-out, compound at 16.7 µg/mL; z-score: measured here: FP z-score. Background: In fluorescence polarisation assays a small probe gives low polarisation when free and higher when bound to something large.
In the case of `CCCCOc1ccccc1C(=O)NCC1(N(C)C)CCCCC1`, the % elongation was 109% and the z-score is -1.
For `CN(C)c1ccc(C(=O)NCC2(N(C)C)CCCCC2)cc1` the same measures were 107% and -0.2.
For `CN(C)C1(CNC(=O)c2ccccc2[N+](=O)[O-])CCCCC1` the same measures were 107% and 0.8.
For `CCOc1cccc(C(=O)NCC2(N(C)C)CCCCC2)c1` the same measures were 107% and 0.
As for `COc1ccc(OC)c(C=C(C#N)C#N)c1`, the % elongation was determined as 97% and the z-score is -0.6.
For `O=C(NCC1(N2CCOCC2)CCCCC1)c1cnc(Cl)c(Cl)c1` the same measures were 104% and -0.1.
For `CN(C)C1(CNC(=O)c2ccccc2F)CCCCC1`, in that order: 112% and 0.8.
As to `CN(C)C1(CNC(=O)c2cccc(Cl)c2)CCCCC1`, the % elongation worked out at 106% and the z-score is -0.3.
For `CC(C)COc1ccc(C(=O)NCC2(N(C)C)CCCCC2)cc1`, in that order: 105% and -0.8.
For `O=C(OC1CN2CCC1CC2)C(CO)(c1ccccc1)c1ccccc1` (stereo not drawn), in that order: 110% and 0.5.
With `COc1cccc(C(=O)NCC2(N3CCOCC3)CCCCC2)c1`, the % elongation came out at 108% and the z-score was determined as 0.
For `CC(C)Oc1ccc(C(=O)NCC2(N(C)C)CCCCC2)cc1` the same measures were 110% and -0.4.
For `O=C(NCC1(N2CCCCC2)CCCCC1)c1ccc2c(c1)OCCO2`, in that order: 108% and -0.6.
For `COc1cc(C(=O)NCC2(N(C)C)CCCCC2)cc(OC)c1OC` the same measures were 112% and 1.1.
Take `Cc1cccc(C(=O)NCC2(N(C)C)CCCCC2)c1`: the % elongation was determined as 106% and the z-score was 0.
For `CN1C2CCC1CC(OC(=O)C(O)(c1ccccc1)c1ccccc1)C2` (stereo not drawn), in that order: 103% and -0.8.
For `CN(C)C1(CNC(=O)c2ccncc2)CCCCC1`, in that order: 108% and 0.4.
For `COc1ccc(C(=O)NCC2(N(C)C)CCCCC2)cc1Cl`, in that order: 103% and -0.9.
For `N#CC(C#N)=Cc1ccccc1`, the % elongation was 83% and the z-score was -1.8.

Source of the values: PubChem BioAssay AID588519 (ICCB-Longwood Screening Facility, Harvard Medical School, 2011).
